These results are taken from publication PMC9617950.

Results are given in words; binding and its absence hold for the method and conditions named. Binding calls can cover weak binding; strength is not graded here. Tags and fused reporters may be left off the sequences shown.

This assay addresses T1, HMGB2, yeast two-hybrid fusion (pGBKT7-HMGB2) (UniProt P26583).
T1 sequence: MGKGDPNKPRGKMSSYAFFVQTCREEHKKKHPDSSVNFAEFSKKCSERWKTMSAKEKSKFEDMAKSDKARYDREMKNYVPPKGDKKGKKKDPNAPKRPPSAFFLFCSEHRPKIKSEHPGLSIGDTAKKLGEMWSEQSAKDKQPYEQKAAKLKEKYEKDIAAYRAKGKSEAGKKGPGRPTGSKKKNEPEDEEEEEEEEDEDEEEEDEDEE
The assay can be described thus: two-hybrid; yeast; prey pGADT7-BRD4 with different BRD4 domains, bait pGBKT7-HMGB2; growth and blue colour on SD/-Trp/-Leu/-His/-Ade; prey and bait identities also exchanged.
Regarding “BRD4 ET domain, yeast two-hybrid fusion (pGADT7-BRD4) (domain or fragment)”, the binding result was “no binding”. For “BRD4 BD2 domain, yeast two-hybrid fusion (pGADT7-BRD4) (domain or fragment)”, the binding entry is “no binding”. As for “BRD4 BD1 domain, yeast two-hybrid fusion (pGADT7-BRD4) (domain or fragment)”, the binding result is recorded as “no binding”. Next, “BRD4 CTM domain, yeast two-hybrid fusion (pGADT7-BRD4) (domain or fragment)”: “binds”.
